# Paper PMC12040169 (PLOS Biology, 2025)
# This is one part of the list.
# System: T1, CTL2-GFP (C. trachomatis L2/434/Bu, GFP-expressing)
# T1 construct: L2/434/Bu, GFP-expressing
# Parameters: species or system HeLa; Intracellular C. trachomatis growth in HeLa cells, bulk GFP fluorescence relative to DMSO
# Details: bulk GFP, single well; 28.5 h, 10 µM; inhibitor
row,SMILES,% of control remaining [%]
1,CC(C)C(=O)N1CCC[C@@H](Cn2nc(-c3cccs3)ccc2=O)C1 [CBK282317],124.101
2,Cc1ccc(C)c(C2C(C(=O)c3ccccc3Cl)=C(O)C(=O)N2c2ccc(CC(=O)O)cc2)c1 (stereo not shown) [CBK297723],173.715
3,Cc1ccc(NC(=O)C2CC=CCC2C(=O)O)cc1NC(=O)c1ccc(Cl)cc1 (stereo not shown) [CBK268980],157.463
4,Cc1ccc(NC(=S)NCCc2ccc(S(N)(=O)=O)cc2)c(C)c1 [CBK264870],124.738
5,CCOC(=O)C(CNS(=O)(=O)c1ccc(F)cc1C)Cc1ccccc1 (stereo not shown) [CBK305427],82.2805
6,CCn1c(SCC(=O)O)nnc1-c1ccco1 [CBK068633],122.176
7,O=C(CSc1ncn[nH]1)Nc1ncccn1 [CBK058488],113.916
8,Cc1cc(O)n(-c2cc(-c3ccccc3)nc(-c3ccccc3)n2)n1 [CBK262014],146.6
9,N=C(N)NS(=O)(=O)c1ccc(N/C=C\C(=O)c2ccncc2)cc1 [CBK264185],109.535
10,CCc1nc2ccc(C(=O)NCCc3c[nH]c4ccccc34)cn2c1N(C)Cc1ccncc1 [CBK145636],129.953
11,Cc1nn(CC(=O)N2CCCCCC2)c(=O)c2cc3ccsc3n12 [CBK284060],131.624
12,Cc1nn(CC(=O)N2CCCC(C)C2)c(=O)c2cc3occc3n12 (stereo not shown) [CBK283623],103.203
13,O=C(CN1CCC(c2ccccc2F)CC1)N1CCCCC1 [CBK283577],135.77
14,Cc1csc2c(C3CCN(C(=O)c4cc[nH]n4)CC3)nc(C)n12 [CBK285245],124.287
15,Clc1ccc(Nc2nnns2)cc1Cl [CBK005211],99.0931
16,CCN(CC)C(=O)CN(CCc1ccc(OC)c(OC)c1)C(=O)NCCCSC [CBK158725],131.288
17,Cc1cc(C(=O)NCC[S+](C)[O-])c(-n2cccc2)s1 (stereo not shown) [CBK283305],139.209
18,O=C(NC(=O)c1ccc2ccccc2c1)Nc1ccc(Br)cc1 [CBK261735],88.4172
19,C(=N\c1ccc2c(c1)OCCOCCOc1cc(/N=C/c3ccccc3)ccc1OCCOCCO2)/c1ccccc1 [CBK261388],108.266
20,O=C(NCC1CCCO1)c1ccc(NC(=O)C2C3C=CC(C3)C2C(=O)O)cc1 (stereo not shown) [CBK266317],102.137
21,CCn1c(C)c(C)n2c3c(=O)n(CCN4CCOCC4)c(=O)n(C)c3nc12 [CBK269786],145.909
22,Cc1nc(C(F)(F)F)ccc1C(=O)NCCn1ccnc1C [CBK281982],114.722
23,COc1cc(CN2CCN(Cc3ccccc3)CC2)cc([N+](=O)[O-])c1O [CBK261574],116.362
24,CC1(C)CC(NC2=CC(=O)CC2)CC(C)(C)N1 [CBK028997],110.841
25,CN(C)CCCN(Cc1ccc2ncccc2c1)Cc1ccco1 [CBK283197],106.078
26,N#CCc1c(-c2ccc(Br)cc2)nc2ccccn12 [CBK172896],109.179

row,SMILES,% of control remaining [%]
1,CCN1CCN(Cc2nc3c([nH]2)c(=O)n(C)c(=O)n3C)CC1 [CBK269413],130.981
2,CN(CCN1CCCCC1=O)c1nccc(CCC(F)(F)F)n1 [CBK307218],122.045
3,CC(=O)N1CCc2cc(C)ccc2C12CCN(CCCOc1ccccc1)CC2 [CBK081064],159.684
4,CS(=O)(=O)NC1CCN(c2nc(C(F)(F)F)nc3ccsc23)CC1 [CBK304592],117.47
5,CCN(CC1CCOCC1)C(=O)Cn1c(C)cc(=O)c2ccccc21 [CBK307230],101.381
6,COc1cccc(C2(NC(=O)CCn3cccn3)CCCC2)c1 [CBK283660],102.107
7,O=C(c1csnn1)N1CCN(CCc2ccccc2)CC1 [CBK200228],134.821
8,COc1ccc(Br)c(C(=O)N(C)Cc2cnn(C)c2)c1 [CBK305142],159.54
9,Cn1c(N2CC[C@H](O)C2)nc2cc(C(=O)NCCn3cccc3)ccc21 [CBK307480],118.769
10,CCCN1CCC(=NNC(=O)c2c[nH]c3ccccc23)CC1 [CBK262597],105.415
11,O=C(O)C(c1c[nH]c2cc(F)ccc12)N1CCN(CC(=O)N2CCOCC2)CC1 (stereo not shown) [CBK286825],143.976
12,O=C(COc1cccnc1)N1CCN(c2ncccn2)CC1 [CBK144521],65.0985
13,O=c1c2[nH]cc(-c3ccccc3)c2ncn1CCc1ccccc1 [CBK288025],133.289
14,CCNc1cc2ccccc2c(-c2cccc(C(F)(F)F)c2)n1 [CBK085772],86.0561
15,CCOC(=O)c1cnc2ccc(F)cc2c1N1CCN(C)CC1 [CBK304376],129.52
16,COc1ccc(CCCC(=O)Nc2c(C)nn(C)c2N2CCNCC2)cc1OC [CBK050252T],95.3056
17,O=C(c1ccno1)N1Cc2ccccc2C1 [CBK200327],80.0153
18,CC(CNCC1CCCO1)COc1cccc(Cl)c1 (stereo not shown) [CBK058789],121.585
19,O=C(Nc1nccs1)C1CCCN(C(=O)c2ccco2)C1 (stereo not shown) [CBK296725],125.869
20,CCNC(=O)CN(C)S(=O)(=O)c1cc(Cl)ccc1Cl [CBK091853],99.0288
21,O=S(=O)(Nc1ccc(-c2nnn[nH]2)cc1)c1c(F)cccc1F [CBK154734],120.952
22,COCCNc1nccnc1-c1ccccc1 [CBK088555],102.983
23,CCCS(=O)(=O)Nc1cccc2[nH]ccc12 [CBK159488],97.2281
24,COc1cccc(-c2cc(C(=O)Nc3nnn[nH]3)c3ccccc3n2)c1 [CBK262640],120.07
25,Cc1cccc(C)c1N(CC(=O)O)S(C)(=O)=O [CBK262329],100
26,CNC(=O)C1(Cc2cccc(-c3cccs3)c2)CCN(C(=O)COc2ccccc2)CC1 [CBK285732],98.8195

# Laid out differently: entries from further up
row | SMILES | % of control remaining [%]
11 | Cc1nn(CC(=O)N2CCCCCC2)c(=O)c2cc3ccsc3n12 [CBK284060] | 131.624
25 | CN(C)CCCN(Cc1ccc2ncccc2c1)Cc1ccco1 [CBK283197] | 106.078
9 | Cn1c(N2CC[C@H](O)C2)nc2cc(C(=O)NCCn3cccc3)ccc21 [CBK307480] | 118.769
10 | CCCN1CCC(=NNC(=O)c2c[nH]c3ccccc23)CC1 [CBK262597] | 105.415
